For assay [1], the target named is OsEREBP1-GFP-Myc (rice (Oryza sativa)) (UniProt Q6K7E6). As to the kind of experiment: co-IP.
The target of assay [2] is OsEREBP1-cYFP (rice (Oryza sativa)) (UniProt Q6K7E6). Kind of assay: split reporter.

The chains behind the UniProt entries cited, without tags or fusion partners.
UniProt Q6K7E6: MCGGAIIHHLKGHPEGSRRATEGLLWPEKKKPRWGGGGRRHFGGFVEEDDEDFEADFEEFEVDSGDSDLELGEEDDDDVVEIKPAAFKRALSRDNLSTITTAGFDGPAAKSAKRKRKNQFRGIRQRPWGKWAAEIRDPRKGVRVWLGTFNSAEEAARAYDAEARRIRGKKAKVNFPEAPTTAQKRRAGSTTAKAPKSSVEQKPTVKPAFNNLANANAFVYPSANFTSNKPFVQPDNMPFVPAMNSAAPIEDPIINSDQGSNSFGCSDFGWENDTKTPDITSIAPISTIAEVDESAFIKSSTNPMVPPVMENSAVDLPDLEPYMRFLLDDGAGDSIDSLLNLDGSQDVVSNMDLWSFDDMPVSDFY

Results are given in words; binding and its absence hold for the method and conditions named. In cells and extracts the contact can be indirect. Some entries that bind do so weakly or less than the wild type. Where a sequence is shown, tags or fusion partners need not be part of it.

B1: OsNAC2-GFP-HA (protein, UniProt Q7XUV6 1-343)
chain: MEQHQGQAGMDLPPGFRFHPTDEELITHYLAKKVADARFAALAVAEADLNKCEPWDLPSLAKMGEKEWYFFCLKDRKYPTGLRTNRATESGYWKATGKDKDIFRRKALVGMKKTLVFYTGRAPKGEKSGWVMHEYRLHGKLHAAALGFLHGKPASSKNEWVLCRVFKKSLVEVGAAGGKKAAVVTMEMARGGSTSSSVADEIAMSSVVLPPLMDMSGAGAGAVDPATTAHVTCFSNALEGQFFNPTAVHGHGGGDSSPFMASFTQYGQLHHGVSLVQLLESCNGYGGLVDMAASGSQLQPAACGGERERLSASQDTGLTSDVNPEISSSSGQKFDHEAALWGY
Consider B1, for which, in assay [1], the binding result is “binds”.

B2: OsNAC2-nYFP (protein, UniProt Q7XUV6 1-343)
chain: B1 chain
As to B2, in assay [2], the binding entry is recorded as “binds”.
